The supplement of paper PMC10470496
Structures can show the parent of a compound that is named as a salt. Some of the results follow. Repeats are few or missing, and single values can be far off.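 The strains were three CDC resistance-bank clinical C. auris isolates from clades III, IV and I, cultured in RPMI-1640 at 35°C. Growth was background-corrected OD600 versus vehicle-only wells on the same plate. A hit needed >50% inhibition in two or more strains plus a plate-corrected B-score exceeding 0.1.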

How the values were obtained:
Assay in all cases: growth relative to vehicle control (OD600 ratio) (fraction); higher = less inhibition
Conditions in all cases: 24 h
C. auris AR-384 = system: C. auris AR-384
C. auris AR-386 = system: C. auris AR-386
C. auris AR-387 = system: C. auris AR-387

SMILES | growth (C. auris AR-384; 1 µM) | growth (C. auris AR-384; 10 µM) | growth (C. auris AR-386; 1 µM) | growth (C. auris AR-386; 10 µM) | growth (C. auris AR-387; 1 µM) | growth (C. auris AR-387; 10 µM)
NCC1(CC(=O)O)CCCCC1 [Gabapentin HCl] | 0.62 | 0.45 | 0.93 | 0.73 | 0.73 | 0.76
CCCN1C[C@H](CSC)C[C@@H]2c3cccc4[nH]cc(c34)C[C@H]21 [Pergolide Mesylate] | 0.66 | 0.75 | 0.79 | 0.78 | 0.72 | 0.81
CCCCCCCCCCCCCCCC[n+]1ccccc1 [Cetylpyridinium Chloride] | 0.86 | 0.14 | 0.74 | 0.01 | 1 | 0.01
O=[N+]([O-])O[C@@H]1CO[C@H]2[C@@H]1OC[C@@H]2O [Isosorbide Mononitrate] | 1.6 | 1.4 | 1.15 | 1.03 | 1.04 | 1.04
O=P1(N(CCCl)CCCl)NCCCO1 (stereo unspecified) [Cyclophosphamide Monohydrate] | 0.84 | 0.72 | 0.95 | 0.83 | 0.95 | 1.15
COc1ccc(C(=O)N2CCCC2=O)cc1 [Aniracetam] | 0.92 | 1 | 0.74 | 0.8 | 0.82 | 0.95
CNC(C)Cc1ccccc1OC (stereo unspecified) [Methoxyphenamine Hydrochloride] | 0.99 | 0.89 | 1.15 | 1 | 1.14 | 1.3
O=C1CC[C@@]2(O)[C@H]3Cc4ccc(O)c5c4[C@@]2(CCN3CC2CC2)[C@H]1O5 [Naltrexone HCl] | 0.68 | 0.8 | 0.74 | 1.06 | 1.11 | 0.9
CCN(C)C(=O)Oc1cccc([C@H](C)N(C)C)c1 [Rivastigmine] | 1.16 | 1.43 | 0.97 | 0.8 | 0.91 | 0.95
O=C(O[C@H]1C[N+]2(CCCOc3ccccc3)CCC1CC2)C(O)(c1cccs1)c1cccs1 [Aclidinium Bromide] | 0.9 | 0.86 | 0.61 | 0.81 | 0.67 | 0.94
C[N+]1(C)CCCC(OC(=O)C(O)(c2ccccc2)c2ccccc2)C1 (stereo unspecified) [Mepenzolate Bromide] | 1.33 | 1.41 | 1.42 | 1.44 | 1.37 | 1.12
CCc1cc2c(s1)-n1c(C)nnc1CN=C2c1ccccc1Cl [Etizolam] | 0.88 | 0.75 | 0.98 | 0.66 | 0.83 | 0.62
CC(C)N(CCNC(=O)CN1CCCC1=O)C(C)C [Pramiracetam] | 0.95 | 0.86 | 1.26 | 1.15 | 1.38 | 1.23
CNC1CC(N)C(O)C(OC2OC(CO)C(O)C3OC4(OC(C(N)CO)C(O)C(O)C4O)OC23)C1O (stereo unspecified) [Hygromycin B] | 1.2 | 1.14 | 1.1 | 1.22 | 0.94 | 1.27
CC(NC(C)(C)C)C(=O)c1cccc(Cl)c1 (stereo unspecified) [Amfebutamone (Bupropion) HCl] | 0.96 | 0.85 | 1.13 | 0.86 | 0.92 | 0.77
Cn1cc(C2=C(c3cn(C4CCN(Cc5ccccn5)CC4)c4ccccc34)C(=O)NC2=O)c2ccccc21 | 1.1 | 0.53 | 0.76 | 0.72 | 0.69 | 0.94
N[C@@H]1C[C@H]1c1ccccc1 [Tranylcypromine (2-PCPA) HCl] | 0.95 | 0.88 | 1.3 | 0.74 | 0.86 | 0.85
CN1[C@@H]2C[C@@H](OC(=O)[C@H](CO)c3ccccc3)C[C@H]1[C@@H]1O[C@@H]12 [Scopolamine HBr] | 0.8 | 0.9 | 0.53 | 0.82 | 0.68 | 0.67
CC(=O)OC1CN2CCC1CC2 (stereo unspecified) [Aceclidine HCl] | 1.31 | 1.27 | 1.19 | 1.09 | 1.11 | 0.97
CN1[C@@H]2CC[C@H]1C[C@@H](OC(=O)[C@H](CO)c1ccccc1)C2 [Hyoscyamine] | 0.93 | 0.74 | 1.12 | 0.87 | 0.66 | 0.96
O=C(O)c1nn(Cc2ccc(Cl)cc2Cl)c2ccccc12 [Lonidamine] | 0.99 | 1.01 | 1.12 | 1.06 | 0.99 | 0.82
CCN(CC)CCOC(=O)C(O)(c1ccccc1)c1ccccc1 [Benactyzine hydrochloride] | 1.09 | 0.81 | 0.9 | 0.93 | 0.65 | 0.73
Cc1cccc(C)c1NC(=O)CN1CCCC1=O [Nefiracetam] | 0.81 | 0.81 | 0.56 | 1 | 0.84 | 0.71
Cc1cccc(C)c1NC1=NCCCS1 [Xylazine HCl] | 0.87 | 0.77 | 0.95 | 1.09 | 0.89 | 0.76
NC(=O)c1cc(N2CC2)c([N+](=O)[O-])cc1[N+](=O)[O-] | 0.98 | 0.98 | 0.9 | 1 | 0.96 | 0.98
NC[C@H](CC(=O)O)c1ccc(Cl)cc1 [(R)-baclofen] | 0.89 | 1.23 | 0.92 | 0.86 | 1.19 | 1.24

SMILES | growth (C. auris AR-384; 1 µM) | growth (C. auris AR-384; 10 µM) | growth (C. auris AR-386; 1 µM) | growth (C. auris AR-386; 10 µM) | growth (C. auris AR-387; 1 µM) | growth (C. auris AR-387; 10 µM)
CC(C)N(CCC(C(N)=O)(c1ccccc1)c1ccccn1)C(C)C (stereo unspecified) [Disopyramide Phosphate] | 1.21 | 1.27 | 1.12 | 0.88 | 1.07 | 0.91
CC(C)OC(=O)[C@H](C)N[P@](=O)(CO[C@H](C)Cn1cnc2c(N)ncnc21)Oc1ccccc1 [Tenofovir Alafenamide (GS-7340)] | 0.77 | 0.73 | 0.51 | 0.91 | 0.75 | 0.67
C[C@]12CC[C@H]3[C@@H](CC[C@@]45O[C@@H]4C(O)=C(C#N)C[C@]35C)[C@@H]1CC[C@@H]2O [Trilostane] | 0.79 | 1.03 | 0.95 | 0.8 | 0.78 | 0.94
C[C@@H]1O[C@@H](O[C@H]2C[C@@H](O)[C@]3(CO)[C@H]4[C@H](O)C[C@]5(C)[C@@H](C6=CC(=O)OC6)CC[C@]5(O)[C@@H]4CC[C@]3(O)C2)[C@H](O)[C@H](O)[C@H]1O [Ouabain] | 1.08 | 1.01 | 0.79 | 0.91 | 0.78 | 1.01
O.O.O.O=C([O-])C1[O][Sb]2[O]C(=O)C([O]2)C(C(=O)[O-])[O][Sb]2[O]C(=O)C1[O]2.[K+].[K+] (stereo unspecified) [Antimonyl potassium tartrate trihydrate] | 1.39 | 0.92 | 1.19 | 1.32 | 1.07 | 1.1
CCOC(=O)c1cncn1[C@H](C)c1ccccc1 [Etomidate] | 0.9 | 1.08 | 1.25 | 1.42 | 1.54 | 1.59
O=P1(NCCCl)OCCCN1CCCl (stereo unspecified) [Ifosfamide] | 1.06 | 1.05 | 1.2 | 1.21 | 1.12 | 1.19
C=CN1CCCC1=O.II [Povidone iodine] | 0.82 | 0.9 | 0.68 | 0.67 | 0.74 | 0.76
Cc1cccc([C@H](C)c2c[nH]cn2)c1C [Dexmedetomidine HCl] | 1.02 | 1.09 | 1.08 | 0.84 | 0.57 | 0.98
CN1[C@@H]2CC[C@H]1C[C@@H](OC(=O)C(CO)c1ccccc1)C2 (stereo partly specified) [Atropine sulfate monohydrate] | 0.89 | 0.8 | 0.74 | 0.75 | 0.67 | 0.63
NC(=O)CN1CCCC1=O [Piracetam] | 0.99 | 0.97 | 0.79 | 1.17 | 1.01 | 0.97
CCC1(c2cccc(O)c2)CCCCN(C)C1 (stereo unspecified) [Meptazinol HCl] | 0.88 | 0.84 | 0.89 | 1.08 | 1.01 | 1.1
O=[N+]([O-])C(Br)(CO)CO [Bronopol] | 0.82 | 0.54 | 0.59 | 0.57 | 0.55 | 0.49
CC(=O)NC1CCSC1=O (stereo unspecified) [Citiolone] | 1.21 | 1.22 | 0.94 | 1.15 | 0.68 | 0.87
COc1cc2c(c(OC)c1OC)-c1ccc(OC)c(=O)cc1[C@@H](NC(C)=O)CC2 [Colchicine] | 1.22 | 1.26 | 1.16 | 1.05 | 1.07 | 1.34
CN(C)C(=O)Oc1cccc([N+](C)(C)C)c1 [Neostigmine Bromide] | 0.84 | 0.6 | 0.86 | 0.81 | 0.67 | 0.81
CCOC(=O)Nc1ccc(NCc2ccc(F)cc2)cc1N [Retigabine 2HCl] | 1.12 | 1.41 | 1.04 | 1.23 | 0.93 | 1.25
CCC(COC(=O)c1cc(OC)c(OC)c(OC)c1)(c1ccccc1)N(C)C (stereo unspecified) [Trimebutine] | 0.94 | 1.06 | 0.68 | 1.11 | 0.79 | 0.92
Cc1cccc(C(C)c2c[nH]cn2)c1C (stereo unspecified) [Medetomidine HCl] | 1.22 | 0.97 | 1.25 | 0.91 | 1.08 | 0.99
CCOC(=O)Nc1ccc(NCc2ccc(F)cc2)cc1N [Retigabine] | 1.26 | 1.02 | 0.82 | 1.13 | 0.79 | 0.83
O=C(O[C@H]1C[C@H]2CC[C@@H](C1)[N+]21CCCC1)C(O)(c1ccccc1)c1ccccc1 [Trospium chloride] | 1.13 | 0.88 | 0.93 | 1.41 | 0.81 | 0.78
C#C[C@]1(O)C=C[C@H]2[C@@H]3CCC4=CC(=O)CC[C@@H]4[C@H]3CC[C@@]21CC [Gestodene] | 1.09 | 0.8 | 0.83 | 1.2 | 1.21 | 0.81
NCCc1c[nH]c2ccc(O)cc12 [Serotonin HCl] | 0.82 | 0.9 | 0.52 | 1.09 | 0.89 | 0.94
C[C@@H]1CC[C@H]2[C@@H](C)C(=O)O[C@@H]3O[C@@]4(C)CC[C@@H]1[C@]32OO4 [Artemisinin] | 0.61 | 0.43 | 0.46 | 0.75 | 0.69 | 0.6
O=c1[nH]c2ccccc2n1CCCN1CCC(n2c(=O)[nH]c3cc(Cl)ccc32)CC1 [Domperidone] | 0.97 | 0.99 | 1.21 | 0.67 | 0.68 | 0.62

A portion from the list above, as a working copy:
SMILES | growth (C. auris AR-384; 1 µM) | growth (C. auris AR-384; 10 µM) | growth (C. auris AR-386; 1 µM) | growth (C. auris AR-386; 10 µM) | growth (C. auris AR-387; 1 µM) | growth (C. auris AR-387; 10 µM)
CCC1(c2cccc(O)c2)CCCCN(C)C1 (stereo unspecified) [Meptazinol HCl] | 0.88 | 0.84 | 0.89 | 1.08 | 1.01 | 1.1
O=[N+]([O-])C(Br)(CO)CO [Bronopol] | 0.82 | 0.54 | 0.59 | 0.57 | 0.55 | 0.49
